Data on 1 molecule can be found in ChEMBL document CHEMBL4842360, “Discovery of a Bicyclic Peptidyl Pan-Ras Inhibitor” (J Med Chem, 2021).

A short description of this data set: Stability in human serum assessed as compound remaining at 100 uM measured after 24 hrs by RP-HPLC method. Type of data set: ADME, cell-free. The following applies: read-out: Stabilty.

Turning to `C[C@@H](NC(=O)[C@H](Cc1ccccc1)NC(=O)[C@@H](CCCNC(=N)N)NC(=O)[C@H](CCCN)NC(=O)[C@@H]1CNC(=O)c2cc3cc(c2)C(=O)N[C@H](Cc2ccc4ccccc4c2)C(=O)N[C@@H](CO)C(=O)N[C@@H](CC(N)=O)C(=O)N[C@H](Cc2ccc4ccccc4c2)C(=O)N[C@@H](c2ccccc2)C(=O)N[C@@H](CCCCNC3=O)C(=O)N[C@H](Cc2ccccc2)C(=O)N[C@@H](CCC(N)=O)C(=O)N[C@H](CCCNC(=N)N)C(=O)N[C@@H](CCCNC(=N)N)C(=O)N1)C(N)=O`, the remaining at 24 h, 100 µM was determined as 85%.
